Source: patent publication US20060110789A1, “Methods to mediate polyketide synthase module effectiveness” (priority 2002, published 2006)
No constants are given. Whether binding was seen depends on the method and setting. Some binding calls cover weakened binding; strength is not graded here.

By UniProt entry, the sequences of proteins in these tests, tags left out. Where a name states a change or a piece, a line headed by the entry shows the natural chain unless it says otherwise.
UniProt Q03131: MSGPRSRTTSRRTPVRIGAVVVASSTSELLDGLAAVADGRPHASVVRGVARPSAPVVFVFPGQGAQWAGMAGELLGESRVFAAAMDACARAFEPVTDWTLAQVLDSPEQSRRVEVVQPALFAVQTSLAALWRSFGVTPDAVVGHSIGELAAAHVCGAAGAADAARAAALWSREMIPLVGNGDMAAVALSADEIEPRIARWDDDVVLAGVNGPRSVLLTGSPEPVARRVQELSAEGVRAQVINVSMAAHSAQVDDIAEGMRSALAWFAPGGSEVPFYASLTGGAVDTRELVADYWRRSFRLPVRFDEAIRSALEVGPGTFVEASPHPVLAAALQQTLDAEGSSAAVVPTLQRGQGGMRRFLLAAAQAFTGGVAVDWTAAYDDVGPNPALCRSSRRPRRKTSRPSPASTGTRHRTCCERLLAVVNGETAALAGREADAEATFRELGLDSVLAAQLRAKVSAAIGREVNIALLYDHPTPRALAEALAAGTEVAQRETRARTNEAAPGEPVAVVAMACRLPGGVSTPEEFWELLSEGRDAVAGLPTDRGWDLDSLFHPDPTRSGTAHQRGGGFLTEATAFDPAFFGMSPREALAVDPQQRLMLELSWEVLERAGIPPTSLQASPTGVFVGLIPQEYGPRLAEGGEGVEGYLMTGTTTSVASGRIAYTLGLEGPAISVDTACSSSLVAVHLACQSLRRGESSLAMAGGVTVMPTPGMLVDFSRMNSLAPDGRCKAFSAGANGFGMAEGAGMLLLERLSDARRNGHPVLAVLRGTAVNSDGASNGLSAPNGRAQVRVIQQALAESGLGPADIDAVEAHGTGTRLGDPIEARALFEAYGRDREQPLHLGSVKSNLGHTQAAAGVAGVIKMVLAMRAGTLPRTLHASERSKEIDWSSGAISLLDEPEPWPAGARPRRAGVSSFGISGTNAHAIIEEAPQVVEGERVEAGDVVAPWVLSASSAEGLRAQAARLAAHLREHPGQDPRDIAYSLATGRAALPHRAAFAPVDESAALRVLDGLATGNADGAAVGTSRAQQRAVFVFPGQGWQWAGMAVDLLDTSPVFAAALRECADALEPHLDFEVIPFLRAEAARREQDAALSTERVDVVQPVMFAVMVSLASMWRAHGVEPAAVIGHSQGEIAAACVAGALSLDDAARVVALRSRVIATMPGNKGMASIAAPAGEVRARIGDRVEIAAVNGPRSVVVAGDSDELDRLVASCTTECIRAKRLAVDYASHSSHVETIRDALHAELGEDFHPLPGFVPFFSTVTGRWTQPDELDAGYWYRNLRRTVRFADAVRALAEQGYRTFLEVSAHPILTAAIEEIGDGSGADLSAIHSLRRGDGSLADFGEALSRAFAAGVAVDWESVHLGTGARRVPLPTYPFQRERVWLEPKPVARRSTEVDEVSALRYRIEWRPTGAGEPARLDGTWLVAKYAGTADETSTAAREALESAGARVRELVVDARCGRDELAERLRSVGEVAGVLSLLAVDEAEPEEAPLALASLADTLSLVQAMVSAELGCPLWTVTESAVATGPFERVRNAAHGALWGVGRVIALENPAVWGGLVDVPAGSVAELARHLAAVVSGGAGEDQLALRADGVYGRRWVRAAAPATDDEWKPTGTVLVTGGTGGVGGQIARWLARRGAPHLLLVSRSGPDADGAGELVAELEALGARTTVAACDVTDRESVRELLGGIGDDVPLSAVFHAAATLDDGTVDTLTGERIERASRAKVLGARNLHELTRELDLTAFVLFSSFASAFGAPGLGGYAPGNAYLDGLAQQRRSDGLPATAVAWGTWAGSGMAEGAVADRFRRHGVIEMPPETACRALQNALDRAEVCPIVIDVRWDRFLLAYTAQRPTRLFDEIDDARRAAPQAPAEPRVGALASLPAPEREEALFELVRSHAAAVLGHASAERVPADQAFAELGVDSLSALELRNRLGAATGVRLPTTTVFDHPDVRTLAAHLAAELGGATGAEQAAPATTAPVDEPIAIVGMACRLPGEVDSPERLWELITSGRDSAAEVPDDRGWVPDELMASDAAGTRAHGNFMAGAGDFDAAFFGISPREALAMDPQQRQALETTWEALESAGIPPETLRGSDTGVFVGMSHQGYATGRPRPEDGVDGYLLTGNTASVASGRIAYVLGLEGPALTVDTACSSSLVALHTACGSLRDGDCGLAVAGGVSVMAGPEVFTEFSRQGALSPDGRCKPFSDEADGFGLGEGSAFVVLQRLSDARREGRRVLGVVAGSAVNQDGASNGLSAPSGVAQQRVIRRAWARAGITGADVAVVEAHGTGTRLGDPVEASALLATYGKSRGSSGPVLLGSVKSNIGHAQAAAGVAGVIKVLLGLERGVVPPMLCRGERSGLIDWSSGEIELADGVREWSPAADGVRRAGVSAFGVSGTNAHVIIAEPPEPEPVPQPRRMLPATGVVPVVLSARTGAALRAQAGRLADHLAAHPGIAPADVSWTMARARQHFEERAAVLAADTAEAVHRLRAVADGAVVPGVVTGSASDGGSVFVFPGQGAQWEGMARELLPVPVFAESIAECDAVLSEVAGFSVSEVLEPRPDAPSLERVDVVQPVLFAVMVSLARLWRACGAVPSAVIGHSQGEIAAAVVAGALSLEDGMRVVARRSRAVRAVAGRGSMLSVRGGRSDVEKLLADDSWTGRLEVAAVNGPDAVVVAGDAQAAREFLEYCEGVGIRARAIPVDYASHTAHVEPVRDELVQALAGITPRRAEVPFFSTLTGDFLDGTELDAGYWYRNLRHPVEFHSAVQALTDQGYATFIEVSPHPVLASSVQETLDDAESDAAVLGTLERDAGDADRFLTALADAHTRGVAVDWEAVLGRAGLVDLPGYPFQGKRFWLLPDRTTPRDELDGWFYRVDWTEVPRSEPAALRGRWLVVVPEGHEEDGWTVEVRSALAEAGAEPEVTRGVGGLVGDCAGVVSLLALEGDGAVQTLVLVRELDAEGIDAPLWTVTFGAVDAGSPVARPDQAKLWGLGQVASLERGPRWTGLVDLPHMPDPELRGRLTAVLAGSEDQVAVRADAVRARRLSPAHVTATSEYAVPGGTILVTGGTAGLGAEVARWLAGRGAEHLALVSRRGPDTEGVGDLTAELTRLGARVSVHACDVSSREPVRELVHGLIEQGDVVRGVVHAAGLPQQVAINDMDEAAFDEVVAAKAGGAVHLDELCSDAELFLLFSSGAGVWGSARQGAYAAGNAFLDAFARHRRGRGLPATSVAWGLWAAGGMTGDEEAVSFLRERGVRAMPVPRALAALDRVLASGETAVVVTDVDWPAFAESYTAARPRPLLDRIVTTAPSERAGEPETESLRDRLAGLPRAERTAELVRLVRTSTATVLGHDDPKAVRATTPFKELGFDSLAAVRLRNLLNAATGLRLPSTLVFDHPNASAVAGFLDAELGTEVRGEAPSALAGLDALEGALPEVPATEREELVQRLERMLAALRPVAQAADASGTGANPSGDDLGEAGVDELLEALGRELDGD

Biological target: M2 (module 2 of DEBS with its natural C-terminal linker) (UniProt Q03131)
Test: inferred from selective inhibition of tetraketide production (M2 with M3+TE inhibited, M2(4) with (5)M3+TE not)

- binding: binds
Binder: MTDSEKVAEYLRRATLDLRAARQRIRELESD (C-terminal amide) [M3 N-term (synthetic peptide, N-terminal linker of module 3)]
